Source: patent US4944948A, “EGF/Liposome gel composition and method” (Liposome Technology, Inc., priority 1989, dated 1990)
Not every detail of the peptide structures is certain; ends, links or a residue may be inferred.

Experiment: Surface pressure measurements on lipid monolayers, DuNouy tensiometer
Assay type: physicochemical
Settings: aqueous EGF alone; lipid monolayer in absence of rh-EGF

In the case of `CC[C@H](C)[C@@H]1NC(=O)[C@H](Cc2ccc(O)cc2)NC(=O)CNC(=O)[C@H](C(C)C)NC(=O)[C@H](C(C)C)NC(=O)[C@@H](NC(=O)[C@H](CC(N)=O)NC(=O)[C@@H]2CSSC[C@@H]3NC(=O)[C@H](Cc4ccc(O)cc4)NC(=O)CNC(=O)[C@H](CC(=O)O)NC(=O)[C@H](Cc4c[nH]cn4)NC(=O)[C@H](CO)NC(=O)[C@H](CC(C)C)NC(=O)[C@@H]4CCCN4C(=O)[C@@H](NC(=O)[C@H](CCC(=O)O)NC(=O)[C@H](CO)NC(=O)[C@H](CC(=O)O)NC(=O)[C@H](CO)NC(=O)[C@@H](N)CC(N)=O)CSSC[C@H](NC(=O)[C@H](C(C)C)NC(=O)CNC(=O)[C@H](CC(=O)O)NC(=O)[C@H](Cc4c[nH]cn4)NC(=O)[C@H](CC(C)C)NC3=O)C(=O)N[C@@H](CCSC)C(=O)N[C@@H](Cc3ccc(O)cc3)C(=O)N[C@@H]([C@@H](C)CC)C(=O)N[C@@H](CCC(=O)O)C(=O)N[C@@H](C)C(=O)N[C@@H](CC(C)C)C(=O)N[C@@H](CC(=O)O)C(=O)N[C@@H](CCCCN)C(=O)N[C@@H](Cc3ccc(O)cc3)C(=O)N[C@@H](C)C(=O)N2)CSSC[C@@H](C(=O)N[C@@H](CCC(N)=O)C(=O)N[C@@H](Cc2ccc(O)cc2)C(=O)N[C@@H](CCCNC(=N)N)C(=O)N[C@@H](CC(=O)O)C(=O)N[C@@H](CC(C)C)C(=O)N[C@@H](CCCCN)C(=O)N[C@@H](Cc2c[nH]c3ccccc23)C(=O)N[C@@H](Cc2c[nH]c3ccccc23)C(=O)N[C@@H](CCC(=O)O)C(=O)N[C@@H](CC(C)C)C(=O)N[C@@H](CCCNC(=N)N)C(=O)O)NC(=O)[C@H](CCCNC(=N)N)NC(=O)[C@H](CCC(=O)O)NC(=O)CNC1=O` [Free EGF, Epidermal Growth Factor], the Limiting pressure is reported as 12.6 dyness/cm.
